{"source": "the supplement of paper PMC8728848", "binders": {"B1": {"name": "CD34 (Homo sapiens), P28906 (protein)", "chain": "MGSSHHHHHHSSGLVPRGSHMSTSLATSPTKPYTSSSPILSDIKAEIKCSGIREVKLTQGICLEQNKTSSCAEFKKDRGEGLARVLCGEEQADADAGAQVCSLLLAQSEVRPQCLLLVLANRTEISSKLQLMKKHQSDLKKLGILDFTEQDVASHQSYSQKT"}}, "experiment_in_all_cases": "glycan array binding signal (z-score within array); higher = stronger binding", "details_in_all_cases": "glycan notation: IUPAC condensed, linker removed", "key": {"[1]": {"molecular_target": "Fuc(a1-2)Gal(b1-4)GlcNAc(b1-3)Gal(b1-4)GlcNAc(b1-2)Man(a1-3)[Fuc(a1-2)Gal(b1-4)GlcNAc(b1-3)Gal(b1-4)GlcNAc(b1-2)Man(a1-6)]Man(b1-4)GlcNAc(b1-4)GlcNAc", "in_short": "(§1)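 Glycan array data came from 3228 arrays in the Consortium for Functional Glycomics database, and only arrays with an available protein sequence were kept. Glycan names were put into IUPAC-condensed notation, and columns mapping to the same glycan were averaged. The binding signal is a within-array Z-score, averaged across arrays of one protein sequence run at different concentrations or buffers and across linkers. A negative Z-score can be read as non-binding.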"}, "[2]": {"molecular_target": "Fuc(a1-2)Gal(b1-4)GlcNAc(b1-3)Gal(b1-4)GlcNAc(b1-3)Gal(b1-4)GlcNAc", "in_short": "as §1"}, "[3]": {"molecular_target": "Fuc(a1-2)Gal(b1-4)GlcNAc(b1-3)GalNAc", "in_short": "as §1"}, "[4]": {"molecular_target": "Fuc(a1-2)Gal(b1-4)GlcNAc(b1-3)[Fuc(a1-2)Gal(b1-4)GlcNAc(b1-6)]GalNAc", "in_short": "as §1"}, "[5]": {"molecular_target": "Fuc(a1-2)Gal(b1-4)GlcNAc(b1-3)[Fuc(a1-3)[Gal(b1-4)]GlcNAc(b1-6)]Gal(b1-4)Glc", "in_short": "as §1"}, "[6]": {"molecular_target": "Fuc(a1-2)Gal(b1-4)GlcNAc(b1-6)GalNAc", "in_short": "as §1"}, "[7]": {"molecular_target": "Fuc(a1-2)Gal(b1-4)GlcNAc6S", "in_short": "as §1"}, "[8]": {"molecular_target": "Fuc(a1-2)Gal(b1-4)[Fuc(a1-3)]GlcNAc", "in_short": "as §1"}, "[9]": {"molecular_target": "Fuc(a1-2)Gal(b1-4)[Fuc(a1-3)]GlcNAc(b1-2)Man(a1-3)[Fuc(a1-2)Gal(b1-4)[Fuc(a1-3)]GlcNAc(b1-2)Man(a1-6)]Man(b1-4)GlcNAc(b1-4)[Fuc(a1-6)]GlcNAc", "in_short": "as §1"}, "[10]": {"molecular_target": "Fuc(a1-2)Gal(b1-4)[Fuc(a1-3)]GlcNAc(b1-2)[Fuc(a1-2)Gal(b1-4)[Fuc(a1-3)]GlcNAc(b1-4)]Man(a1-3)[Fuc(a1-2)Gal(b1-4)[Fuc(a1-3)]GlcNAc(b1-2)Man(a1-6)]Man(b1-4)GlcNAc(b1-4)GlcNAc", "in_short": "as §1"}, "[11]": {"molecular_target": "Fuc(a1-2)Gal(b1-4)[Fuc(a1-3)]GlcNAc(b1-3)Gal(b1-4)[Fuc(a1-3)]GlcNAc", "in_short": "as §1"}, "[12]": {"molecular_target": "Fuc(a1-2)Gal(b1-4)[Fuc(a1-3)]GlcNAc(b1-3)Gal(b1-4)[Fuc(a1-3)]GlcNAc(b1-3)Gal(b1-4)[Fuc(a1-3)]GlcNAc", "in_short": "as §1"}, "[13]": {"molecular_target": "Fuc(a1-2)Gal(b1-4)[Fuc(a1-3)]GlcNAc(b1-3)GalNAc", "in_short": "as §1"}, "[14]": {"molecular_target": "Fuc(a1-2)Gal(b1-4)[Fuc(a1-3)]GlcNAc(b1-3)[Neu5Ac(a2-6)Gal(b1-4)GlcNAc(b1-6)]Gal(b1-4)Glc", "in_short": "as §1"}, "[15]": {"molecular_target": "Fuc(a1-2)Gal3S(b1-4)GlcNAc", "in_short": "as §1"}, "[16]": {"molecular_target": "Fuc(a1-2)Gal6S(b1-3)GlcNAc", "in_short": "as §1"}, "[17]": {"molecular_target": "Fuc(a1-2)Gal6S(b1-3)GlcNAc6S", "in_short": "as §1"}, "[18]": {"molecular_target": "Fuc(a1-2)Gal6S(b1-4)Glc", "in_short": "as §1"}, "[19]": {"molecular_target": "Fuc(a1-2)Gal6S(b1-4)Glc6S", "in_short": "as §1"}, "[20]": {"molecular_target": "Fuc(a1-2)[Gal(a1-3)]Gal", "in_short": "as §1"}, "[21]": {"molecular_target": "Fuc(a1-2)[Gal(a1-3)]Gal(b1-3)GalNAc", "in_short": "as §1"}, "[22]": {"molecular_target": "Fuc(a1-2)[Gal(a1-3)]Gal(b1-3)GalNAc(b1-3)Gal(a1-4)Gal(b1-4)Glc", "in_short": "as §1"}, "[23]": {"molecular_target": "Fuc(a1-2)[Gal(a1-3)]Gal(b1-3)GlcNAc", "in_short": "as §1"}, "[24]": {"molecular_target": "Fuc(a1-2)[Gal(a1-3)]Gal(b1-3)GlcNAc(b1-2)Man(a1-3)[Fuc(a1-2)[Gal(a1-3)]Gal(b1-3)GlcNAc(b1-2)Man(a1-6)]Man(b1-4)GlcNAc(b1-4)GlcNAc", "in_short": "as §1"}, "[25]": {"molecular_target": "Fuc(a1-2)[Gal(a1-3)]Gal(b1-3)GlcNAc(b1-2)Man(a1-3)[Fuc(a1-2)[Gal(a1-3)]Gal(b1-3)GlcNAc(b1-2)Man(a1-6)]Man(b1-4)GlcNAc(b1-4)[Fuc(a1-6)]GlcNAc", "in_short": "as §1"}, "[26]": {"molecular_target": "Fuc(a1-2)[Gal(a1-3)]Gal(b1-3)GlcNAc(b1-3)GalNAc", "in_short": "as §1"}, "[27]": {"molecular_target": "Fuc(a1-2)[Gal(a1-3)]Gal(b1-3)GlcNAc(b1-6)GalNAc", "in_short": "as §1"}, "[28]": {"molecular_target": "Fuc(a1-2)[Gal(a1-3)]Gal(b1-4)Glc", "in_short": "as §1"}, "[29]": {"molecular_target": "Fuc(a1-2)[Gal(a1-3)]Gal(b1-4)GlcNAc", "in_short": "as §1"}, "[30]": {"molecular_target": "Fuc(a1-2)[Gal(a1-3)]Gal(b1-4)GlcNAc(b1-2)Man", "in_short": "as §1"}}, "note": "The list shows a part of the results."}
{"binder": "B1", "values": [{"measurement": "glycan array binding signal (z-score)", "setting": "[1]", "value": 1.17}, {"measurement": "glycan array binding signal (z-score)", "setting": "[2]", "value": 0.507}, {"measurement": "glycan array binding signal (z-score)", "setting": "[3]", "value": 0.116}, {"measurement": "glycan array binding signal (z-score)", "setting": "[4]", "value": 0.019}, {"measurement": "glycan array binding signal (z-score)", "setting": "[5]", "value": 0.14}, {"measurement": "glycan array binding signal (z-score)", "setting": "[6]", "value": 0.194}, {"measurement": "glycan array binding signal (z-score)", "setting": "[7]", "value": 0.24}, {"measurement": "glycan array binding signal (z-score)", "setting": "[8]", "value": 0.256}, {"measurement": "glycan array binding signal (z-score)", "setting": "[9]", "value": 0.227}, {"measurement": "glycan array binding signal (z-score)", "setting": "[10]", "value": 1.72}, {"measurement": "glycan array binding signal (z-score)", "setting": "[11]", "value": 0.113}, {"measurement": "glycan array binding signal (z-score)", "setting": "[12]", "value": -0.143}, {"measurement": "glycan array binding signal (z-score)", "setting": "[13]", "value": 0.392}, {"measurement": "glycan array binding signal (z-score)", "setting": "[14]", "value": -0.134}, {"measurement": "glycan array binding signal (z-score)", "setting": "[15]", "value": -0.824}, {"measurement": "glycan array binding signal (z-score)", "setting": "[16]", "value": 0.1}, {"measurement": "glycan array binding signal (z-score)", "setting": "[17]", "value": 0.106}, {"measurement": "glycan array binding signal (z-score)", "setting": "[18]", "value": 0.088}, {"measurement": "glycan array binding signal (z-score)", "setting": "[19]", "value": -0.503}, {"measurement": "glycan array binding signal (z-score)", "setting": "[20]", "value": -0.195}, {"measurement": "glycan array binding signal (z-score)", "setting": "[21]", "value": 0.032}, {"measurement": "glycan array binding signal (z-score)", "setting": "[22]", "value": -0.319}, {"measurement": "glycan array binding signal (z-score)", "setting": "[23]", "value": -0.767}, {"measurement": "glycan array binding signal (z-score)", "setting": "[24]", "value": -0.09}, {"measurement": "glycan array binding signal (z-score)", "setting": "[25]", "value": 0.12}, {"measurement": "glycan array binding signal (z-score)", "setting": "[26]", "value": -0.601}, {"measurement": "glycan array binding signal (z-score)", "setting": "[27]", "value": -0.219}, {"measurement": "glycan array binding signal (z-score)", "setting": "[28]", "value": 0.606}, {"measurement": "glycan array binding signal (z-score)", "setting": "[29]", "value": -0.817}, {"measurement": "glycan array binding signal (z-score)", "setting": "[30]", "value": 0.821}]}
